Like-named read-outs stand apart in the source and are kept apart here. Results are given in words; binding and its absence hold for the method and conditions named. Binding seen in cells or lysates may run through a third protein. Some binding calls cover weakened binding; strength is not graded here.
Columns and labels:
[1] = molecular target: p53 (human (endogenous in HepG2 and QGY-7703)) (UniProt P04637); test: co-IP
[2] = molecular target: p53 (human (endogenous in HepG2 and QGY-7703)) (UniProt P04637); test: co-IP; remark: listed apart in the source

B1: glycogen synthase 2 (GYS2) (enzyme, UniProt P54840 1-703)
chain: MLRGRSLSVTSLGGLPQWEVEELPVEELLLFEVAWEVTNKVGGIYTVIQTKAKTTADEWGENYFLIGPYFEHNMKTQVEQCEPVNDAVRRAVDAMNKHGCQVHFGRWLIEGSPYVVLFDIGYSAWNLDRWKGDLWEACSVGIPYHDREANDMLIFGSLTAWFLKEVTDHADGKYVVAQFHEWQAGIGLILSRARKLPIATIFTTHATLLGRYLCAANIDFYNHLDKFNIDKEAGERQIYHRYCMERASVHCAHVFTTVSEITAIEAEHMLKRKPDVVTPNGLNVKKFSAVHEFQNLHAMYKARIQDFVRGHFYGHLDFDLEKTLFLFIAGRYEFSNKGADIFLESLSRLNFLLRMHKSDITVMVFFIMPAKTNNFNVETLKGQAVRKQLWDVAHSVKEKFGKKLYDALLRGEIPDLNDILDRDDLTIMKRAIFSTQRQSLPPVTTHNMIDDSTDPILSTIRRIGLFNNRTDRVKVILHPEFLSSTSPLLPMDYEEFVRGCHLGVFPSYYEPWGYTPAECTVMGIPSVTTNLSGFGCFMQEHVADPTAYGIYIVDRRFRSPDDSCNQLTKFLYGFCKQSRRQRIIQRNRTERLSDLLDWRYLGRYYQHARHLTLSRAFPDKFHVELTSPPTTEGFKYPRPSSVPPSPSGSQASSPQSSDVEDEVEDERYDEEEEAERDRLNIKSPFSLSHVPHGKKKLHGEYKN
For B1, the binding [1] was “binds” and the binding [2] was “binds”.

Reference: publication doi:10.1101/373761
